# “And” between values parts separate entries of the source, which are not always exact repeats. Identical values can stand only once. In all, about 580,000 compounds went through this assay and about 6,100 (1.1%) were called active. The shares of active, inactive and inconclusive entries below differ from those in the screen. Calls follow the shape of the dose curve; as a rule, active = well fitted inhibition curve with a large enough effect; inconclusive = small, poorly fitted or top-dose-only effect, or another doubt; inactive = no such curve, though single readings can be large or run the other way. A potency beside an inconclusive call is a rough fit, not a confirmed value.
# The chains behind the UniProt entries cited, without tags or fusion partners. Where a name states a change or a piece, a line headed by the entry shows the natural chain unless it says otherwise.
# UniProt P18054: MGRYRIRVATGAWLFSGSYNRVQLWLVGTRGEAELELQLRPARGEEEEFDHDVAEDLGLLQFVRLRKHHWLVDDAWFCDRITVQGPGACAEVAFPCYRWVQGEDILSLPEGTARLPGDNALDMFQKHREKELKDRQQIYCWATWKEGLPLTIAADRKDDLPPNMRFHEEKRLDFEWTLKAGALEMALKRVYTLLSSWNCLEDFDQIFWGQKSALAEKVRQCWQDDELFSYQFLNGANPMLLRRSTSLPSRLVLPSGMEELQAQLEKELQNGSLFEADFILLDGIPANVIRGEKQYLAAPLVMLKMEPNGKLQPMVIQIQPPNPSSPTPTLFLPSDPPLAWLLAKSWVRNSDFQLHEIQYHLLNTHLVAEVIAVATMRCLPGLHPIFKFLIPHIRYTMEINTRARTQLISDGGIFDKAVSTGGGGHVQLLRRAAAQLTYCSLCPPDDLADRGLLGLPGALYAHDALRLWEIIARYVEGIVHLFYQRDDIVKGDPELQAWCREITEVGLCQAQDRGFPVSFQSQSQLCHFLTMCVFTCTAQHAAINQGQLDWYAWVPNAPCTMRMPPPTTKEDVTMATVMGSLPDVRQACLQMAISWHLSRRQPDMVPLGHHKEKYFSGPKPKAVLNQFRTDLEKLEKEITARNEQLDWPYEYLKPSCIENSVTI
# Biological target: Polyunsaturated fatty acid lipoxygenase ALOX12 (Homo sapiens) (UniProt P18054)
# Assay: Primary qHTS assay for inhibitors of human arachidonate 12S-lipoxygenase (ALOX12): Round 2
# Settings: purified 12hLO, xylenol orange hydroperoxide absorbance; activity change, negative = inhibition: at 108 µM (top of the series) unless noted
# Summary of the method: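 Hydroperoxide product was detected by ferrous iron/xylenol orange as the 573 to 405 nm absorbance ratio. Arachidonic acid at 40 uM (final) was turned over for 30 min at room temperature by 150 nM human 12hLO, pH 7.0 Hepes buffer, after 15 min compound preincubation.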
# % is scaled to controls: 0 for no effect and ±100 for the full control effect; potency is read from the fitted curve at half-maximal effect.
Structure (SMILES),"activity change, negative = inhibition",Potency
Cc1cc(=O)c(C(=O)Nc2nnc(C(C)C)s2)nn1-c1ccc(Cl)cc1,inactive: -5.14%,
CCC(C)NC(=O)Cn1ncc2ccccc2c1=O (stereo not drawn),,"inconclusive: 79.4 µM [inhibitor, partial curve, poor fit]"
CCN1CCN(c2ncc3c(n2)CCN(Cc2ccc(OC)c(OC)c2)C3)CC1,,"inconclusive: 79.4 µM [inhibitor, partial curve, poor fit]"
C1=C(c2ccccc2)Nc2nc3ccccc3n2C1c1ccccc1 (stereo not drawn),inactive: 21.3%,
O=C(NCCCO)c1cc2c(cn1)[nH]c1ccccc12,inactive: 20.5%,
COC(=O)C1=C(C)NC(=S)N(C(C)=O)C1c1ccccc1 (stereo not drawn),,"inconclusive: 44.7 µM [inhibitor, single point]"
COc1cc(NC(C)CCCNC(C)C)c2ncccc2c1OC (stereo not drawn),inactive: -27.9%,
CCOc1ccc(CCN2C(=O)C(=O)N([C@@H](CC(C)C)CN3CCC[C@@H]3CN3C(=O)C(=O)NC[C@@H]3Cc3ccccc3)C[C@@H]2CC(C)C)cc1,,"inconclusive: 89.1 µM [inhibitor, single point]"
CCCCSCCCNC(=O)c1ccc2c(c1)N(Cc1cccc(Cl)c1)C(=O)c1ccccc1S2=O (stereo not drawn),,"inconclusive: 50.1 µM [inhibitor, partial curve, poor fit]"
Fc1ccc(F)c(CN2CCN(c3ncccn3)CC2)c1,,"inconclusive: 5.01 µM [inhibitor, full curve, poor fit]"
CCC1([N+](=O)[O-])COC(C=Cc2ccccc2)OC1 (stereo not drawn),,"inconclusive: 20 µM [inhibitor, partial curve, poor fit]"
O=C(O)Cc1ccc(NC(=O)Nc2cccc(Cl)c2)cc1,,"inconclusive: 141 µM [inhibitor, partial curve, poor fit]"
O=C(N/N=C/c1ccc2nccnc2c1)c1ccccc1O,inactive: 0%,
CC(Cc1cccs1)N(Cc1ccc(Cl)cc1)C(=O)c1ccc(C(F)(F)F)cc1 (stereo not drawn),,"inconclusive: 22.4 µM [inhibitor, single point]"
COc1ccc(Cn2nnc(C(=O)Nc3ccc4c(c3)OCCO4)c2N)cc1Br,inactive: 15.4%,
CCCS(=O)(=O)Nc1cccc(-c2cn3c(n2)SCC3)c1,inactive: -1.45%,
COc1cc2ncc3c(-c4ccccc4)nn(CC(=O)NC4CCCCC4)c3c2cc1OC,,"inconclusive: 100 µM [inhibitor, partial curve, poor fit]"
CN(C)Cc1cn(C[C@H]2C[C@@H](NC(=O)COc3ccccc3)[C@H](O)[C@@H]2O)nn1,,"inconclusive: 44.7 µM [inhibitor, single point]"
COc1ccc(S(=O)(=O)N2CCC(N3CCCC3)CC2)cc1,,"inconclusive: 1 µM [inhibitor, full curve, poor fit]"
CCOC(=O)C1(Cc2cccc(OC)c2)CCN(Cc2cccc(OC)c2O)CC1,,"inconclusive: 44.7 µM [inhibitor, partial curve, poor fit]"
CCOC(=O)C1=C(CC)Nc2ccccc2N/C1=N\S(=O)(=O)c1cc(Br)ccc1Br,,"inconclusive: 39.8 µM [inhibitor, partial curve, poor fit]"
CCSC1OC(C(COC(C)=O)OC(C)=O)C(OC(C)=O)C1NC(C)=S (stereo not drawn),,"inconclusive: 39.8 µM [inhibitor, partial curve, poor fit]"
Cc1cc(-c2noc(COc3ccccc3)n2)c2ccccc2n1,,"inconclusive: 79.4 µM [inhibitor, single point]"

Structure (SMILES),"activity change, negative = inhibition",Potency
COc1ccc(NC(=O)Nc2sc(NS(=O)(=O)c3ccccc3)nc2C)cc1,,active: 22.4 µM
COc1ccc(/C=N/Nc2cc(N3CCOCC3)ncn2)c(OC)c1,inactive: 15.2%,
COCCN1C(=O)C(=O)/C(=C(/O)c2ccc(OC)c(C)c2)C1c1ccc(Cl)c(Cl)c1 (stereo not drawn),,"inconclusive: 50.1 µM [inhibitor, partial curve, poor fit]"
CN(C)C(=O)CSc1nnc(Cc2ccccc2)n1CC1CCCO1 (stereo not drawn),inactive: 1.88%,
Fc1cccc(-c2nnn3c2nc(NCc2ccc4c(c2)OCO4)c2ccccc23)c1,,"inconclusive: 100 µM [inhibitor, partial curve, poor fit]"
COc1ccc2[nH]c(C(=O)NCc3ccc4c(c3)OCO4)cc2c1,,"inconclusive: 100 µM [inhibitor, partial curve, poor fit]"
O=C(NCCN1CCN(C(=O)c2ccc([N+](=O)[O-])cc2)CC1)C(=O)NCc1ccccc1,inactive: -4.29%,
COc1cccc(CNCc2ccccc2OC)c1,,"inconclusive: 0.355 µM [inhibitor, full curve, poor fit]"
Cc1cc(CNC(=O)C2(C(F)(F)F)C/C(=C\Cc3ccccc3)CCCO2)nn1C (stereo not drawn),,"inconclusive: 31.6 µM [inhibitor, partial curve, poor fit]"
CC(C)C[C@@H]1N[C@H](C(=O)NCc2ccco2)Cc2c[nH]c3cccc1c23,inactive: -0.287% [at 176 µM],
Cn1c(N/N=C2\CCCc3ccccc32)nc2c1c(=O)n(Cc1ccccc1)c(=O)n2C,inactive: -14.5%,
Cc1ccc(C)c(N2N=C(C(=O)OCc3nnc(-c4ccccc4Br)o3)CCC2=O)c1,inactive: 6.48%,
CC(O)CNc1nc(-c2ccco2)c2c(c1C#N)CCCC2 (stereo not drawn),,"inconclusive: 39.8 µM [inhibitor, partial curve, poor fit]"
Cc1sc2nc(CSc3nc4ccccc4c(=O)n3CCCN3CCOCC3)[nH]c(=O)c2c1C,,"inconclusive: 7.94 µM [inhibitor, full curve, poor fit]"
CC(=O)c1cccc(NC(=O)c2cccc[n+]2[O-])c1,inactive: -37.4%,
CCOC(=O)c1sc(N2C(=O)C(O)=C(C(=O)c3ccco3)C2c2ccc([N+](=O)[O-])cc2)nc1C (stereo not drawn),,active: 28.2 µM
COCCOC1CCOC2(CCN(C(=O)NCc3ccc(F)cc3)CC2)C1 (stereo not drawn),,"inconclusive: 79.4 µM [inhibitor, partial curve, poor fit]"
Oc1ccc(C2(c3ccc(Cl)cc3)CCCCC2)cc1,,"inconclusive: 50.1 µM [inhibitor, partial curve, poor fit]"
CC(=O)Nc1ccc(NC(=O)C(c2ccccc2)N2Cc3ccccc3C2=O)cc1 (stereo not drawn),,"inconclusive: 141 µM [inhibitor, partial curve, poor fit]"
CCC1(CC)CN(C(=O)C2CCC(=O)N(Cc3ccccn3)C2)CCO1 (stereo not drawn),inactive: 36%,
COc1ccc(-c2ccc(SCC(=O)NCc3ccco3)nn2)cc1OC,inactive: -17.4%,
O=C1N(C2CCN(C3CCC3)CC2)C(c2ccncc2)C12CCCCC2 (stereo not drawn),inactive: 14.5%,
Cc1noc2c(NCCN(C)C)cc(-c3cccc(C(F)(F)F)c3)nc12,inactive: 13.8% [at 176 µM],

Structure (SMILES),"activity change, negative = inhibition",Potency
COc1ccc(CC(C(=O)Nc2cc(C)ccc2C)/C(N)=N/O)cc1 (stereo not drawn),,"inconclusive: 0.398 µM [inhibitor, full curve, poor fit]"
NC(=O)c1ccccc1NC(=O)/C=C/c1c(Cl)cccc1Cl,inactive: 0%,
Cc1ccc2c(CNCc3ccco3)cc(=O)oc2c1,,"inconclusive: 35.5 µM [inhibitor, partial curve, poor fit]"
CCOC(=O)c1[nH]c2c(c1-c1ccc(OC)cc1)C(=O)CC(c1ccc(OC)c(OC)c1)C2 (stereo not drawn),inactive: 56.7%,
Cc1ccc(NC(=O)CSCC(=O)N2CCN(Cc3ccc4c(c3)OCO4)CC2)cc1,,"inconclusive: 100 µM [inhibitor, partial curve, poor fit]"
COc1ccc(C([O-])=Nc2ccc[n+](-c3nc4ccccc4nc3NS(=O)(=O)c3ccccc3)c2)cc1,,"inconclusive: 50.1 µM [inhibitor, partial curve, poor fit]"
O=C(NCc1noc(-c2ccccc2)n1)c1ccc(Br)o1,inactive: -44.2%,
Cn1c(-n2ncc(N3CCN(c4cccc(C(F)(F)F)c4)CC3)c(Cl)c2=O)nc2ccccc21,inactive: 11.1%,
CC(C)c1ccc(NC(=O)c2ccc3c(Cl)c4c(nc3c2)CCCC4)cc1,inactive: -5.67%,
O=S(=O)(c1ccc(Br)cc1)c1nnn2c1nc(NCCc1ccccc1)c1sccc12,inactive: -23.7%,
C[C@@H](O)[C@H](N)C(=O)NCc1nc(-c2cccc(F)c2)c(-c2ccccn2)[nH]1,inactive: 84.9%,
NS(=O)(=O)c1ccc(NC2=CC(c3ccc([N+](=O)[O-])cc3)N(c3ccc(S(N)(=O)=O)cc3)C2=O)cc1 (stereo not drawn),,"inconclusive: 44.7 µM [inhibitor, partial curve, poor fit]"
COc1ccc(/C=C2\CCC/C(=C\C=N\N(C)C)C2=O)cc1,,"inconclusive: 50.1 µM [inhibitor, partial curve, poor fit]"
COCC(=O)N1C[C@H]2CON(C)[C@H]2C[C@H]1c1cccc(-c2ccc(C#N)cc2)c1,inactive: -9.85%,
CSc1nc2ccc(NS(=O)(=O)c3c(Cl)cccc3Cl)cc2s1,,"inconclusive: 89.1 µM [inhibitor, single point]"
O=C(NCC1(c2ccccc2)CCCC1)c1cccc(Br)c1,inactive: 7.97%,
Nc1cc(=O)[nH]c(SCCSc2cc(Cl)ccc2Cl)n1,,"inconclusive: 100 µM [inhibitor, single point]"
COC(=O)c1ccc(NC(=O)Nc2ccccc2F)cc1,,"inconclusive: 50.1 µM [inhibitor, partial curve, poor fit]"
Cc1cc(Nc2ccc(F)c(F)c2)n2nc(-c3ccco3)nc2n1,inactive: -14.6%,
Cc1ccc(-c2onc(C)c2C)cc1S(=O)(=O)Nc1cccc(Cl)c1C,,"inactive and inconclusive: 50.1 µM [inhibitor, partial curve, poor fit]"
O=C(CSc1ccccc1F)NC(=O)c1ccc(Cl)cc1,,"inconclusive: 56.2 µM [inhibitor, partial curve, poor fit]"
Fc1cccc2sc(Nc3nc4cc5c(cc4s3)OCO5)nc12,inactive: -23.3%,

# Source: PubChem BioAssay AID1671190 (National Center for Advancing Translational Sciences (NCATS), 2021)
